These results are taken from article doi:10.1101/2020.06.17.156455.

Results are given in words; binding and its absence hold for the method and conditions named. Binding seen in cells or lysates may run through a third protein. A yes stands for co-enrichment or nearness to the bait. Other partners may have been found.

Experiment in all cases: affinity purification with mass spectrometry
For assay [1], the target named is SARS-CoV-2 ORF7a, C-terminally HA-tagged (A549) (SARS-CoV-2) (UniProt P0DTC7).
Assay [2] concerns the target SARS-CoV-2 ORF8, C-terminally HA-tagged (A549) (SARS-CoV-2) (UniProt P0DTC8).
Assay [3] addresses SARS-CoV-2 ORF7b, C-terminally HA-tagged (A549) (SARS-CoV-2) (UniProt P0DTD8).
The target in assay [4] is SARS-CoV-2 NSP13, C-terminally HA-tagged (A549) (SARS-CoV-2) (UniProt P0DTD1).
In assay [5] the target is SARS-CoV N, C-terminally HA-tagged (A549) (SARS-CoV) (UniProt P59595).

Take “ATR (endogenous, A549) (from UniProt Q13535 1-2644)”: in assay [1], the binding entry is recorded as “binds”.
As to “LTBP1 (endogenous, A549) (from UniProt Q14766 24-1721)”, the binding result in assay [2] is listed as “binds”.
Regarding “MAVS (endogenous, A549) (from UniProt Q7Z434 1-540)”, the binding result in assay [3] is given as “binds”.
As for “RING1 (endogenous, A549) (from UniProt Q06587 1-406)”, in assay [4], the binding result was “binds”.
For the substance “UNC93B1 (endogenous, A549) (from UniProt Q9H1C4 1-597)”, in assay [3], the binding entry is listed as “binds”.
“USP9X (endogenous, A549) (from UniProt Q93008 1-2554)”: the binding entry in assay [5] is reported as “binds”.
Turning to “USP34 (endogenous, A549) (from UniProt Q70CQ2 1-3546)”, in assay [1], the binding entry is recorded as “binds”.
